Results taken from the supplement of paper PMC8728848.
The list shows a part of the results.

What was measured:
Experiment in all cases: glycan array binding signal (z-score within array); higher = stronger binding
Conditions in all cases: glycan notation: IUPAC condensed, linker removed
[1] = biological target: Gal(b1-4)GlcNAc(b1-3)Gal(b1-4)GlcNAc(b1-2)Man(a1-3)[Gal(b1-4)GlcNAc(b1-3)Gal(b1-4)GlcNAc(b1-2)Man(a1-6)]Man(b1-4)GlcNAc(b1-4)[Fuc(a1-6)]GlcNAc
Outline: (§1)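 Glycan array binding is given as a within-array Z-score, which can be read as non-binding when negative. The arrays, 3228 of them, came from the Consortium for Functional Glycomics database and were retained only where the protein sequence was available. Z-scores were averaged across arrays of the same protein sequence at different concentrations or buffers and across linkers.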

[2] = biological target: Gal(b1-4)GlcNAc(b1-3)Gal(b1-4)GlcNAc(b1-2)[Gal(b1-4)GlcNAc(b1-3)Gal(b1-4)GlcNAc(b1-6)]Man(a1-6)[Gal(b1-4)GlcNAc(b1-3)Gal(b1-4)GlcNAc(b1-2)Man(a1-3)]Man(b1-4)GlcNAc(b1-4)GlcNAc
Outline: as §1

[3] = biological target: Gal(b1-4)GlcNAc(b1-3)Gal(b1-4)GlcNAc(b1-2)[Gal(b1-4)GlcNAc(b1-3)Gal(b1-4)GlcNAc(b1-6)]Man(a1-6)[Gal(b1-4)GlcNAc(b1-3)Gal(b1-4)GlcNAc(b1-2)Man(a1-3)]Man(b1-4)GlcNAc(b1-4)[Fuc(a1-6)]GlcNAc
Outline: as §1

[4] = biological target: Gal(b1-4)GlcNAc(b1-3)Gal(b1-4)GlcNAc(b1-3)Gal(b1-4)GlcNAc
Outline: as §1

[5] = biological target: Gal(b1-4)GlcNAc(b1-3)Gal(b1-4)GlcNAc(b1-3)Gal(b1-4)GlcNAc(b1-2)Man(a1-3)[Gal(b1-4)GlcNAc(b1-3)Gal(b1-4)GlcNAc(b1-3)Gal(b1-4)GlcNAc(b1-2)Man(a1-6)]Man(b1-4)GlcNAc(b1-4)GlcNAc
Outline: as §1

[6] = biological target: Gal(b1-4)GlcNAc(b1-3)Gal(b1-4)GlcNAc(b1-3)Gal(b1-4)GlcNAc(b1-2)Man(a1-3)[Gal(b1-4)GlcNAc(b1-3)Gal(b1-4)GlcNAc(b1-3)Gal(b1-4)GlcNAc(b1-2)Man(a1-6)]Man(b1-4)GlcNAc(b1-4)[Fuc(a1-6)]GlcNAc
Outline: as §1

[7] = biological target: Gal(b1-4)GlcNAc(b1-3)Gal(b1-4)GlcNAc(b1-3)Gal(b1-4)GlcNAc(b1-2)[Gal(b1-4)GlcNAc(b1-3)Gal(b1-4)GlcNAc(b1-3)Gal(b1-4)GlcNAc(b1-6)]Man(a1-6)[Gal(b1-4)GlcNAc(b1-3)Gal(b1-4)GlcNAc(b1-3)Gal(b1-4)GlcNAc(b1-2)Man(a1-3)]Man(b1-4)GlcNAc(b1-4)[Fuc(a1-6)]GlcNAc
Outline: as §1

[8] = biological target: Gal(b1-4)GlcNAc(b1-3)Gal(b1-4)GlcNAc(b1-3)Gal(b1-4)GlcNAc(b1-3)Gal(b1-4)GlcNAc(b1-2)Man(a1-3)[Gal(b1-4)GlcNAc(b1-3)Gal(b1-4)GlcNAc(b1-3)Gal(b1-4)GlcNAc(b1-3)Gal(b1-4)GlcNAc(b1-2)Man(a1-6)]Man(b1-4)GlcNAc(b1-4)GlcNAc
Outline: as §1

[9] = biological target: Gal(b1-4)GlcNAc(b1-3)Gal(b1-4)GlcNAc(b1-3)Gal(b1-4)GlcNAc(b1-3)Gal(b1-4)GlcNAc(b1-2)Man(a1-3)[Gal(b1-4)GlcNAc(b1-3)Gal(b1-4)GlcNAc(b1-3)Gal(b1-4)GlcNAc(b1-3)Gal(b1-4)GlcNAc(b1-2)Man(a1-6)]Man(b1-4)GlcNAc(b1-4)[Fuc(a1-6)]GlcNAc
Outline: as §1

[10] = biological target: Gal(b1-4)GlcNAc(b1-3)Gal(b1-4)GlcNAc(b1-3)Gal(b1-4)GlcNAc(b1-3)Gal(b1-4)GlcNAc(b1-2)[Gal(b1-4)GlcNAc(b1-3)Gal(b1-4)GlcNAc(b1-3)Gal(b1-4)GlcNAc(b1-3)Gal(b1-4)GlcNAc(b1-6)]Man(a1-6)[Gal(b1-4)GlcNAc(b1-3)Gal(b1-4)GlcNAc(b1-3)Gal(b1-4)GlcNAc(b1-3)Gal(b1-4)GlcNAc(b1-2)Man(a1-3)]Man(b1-4)GlcNAc(b1-4)[Fuc(a1-6)]GlcNAc
Outline: as §1

[11] = biological target: Gal(b1-4)GlcNAc(b1-3)Gal(b1-4)GlcNAc(b1-3)Gal(b1-4)GlcNAc(b1-3)Gal(b1-4)GlcNAc(b1-3)Gal(b1-4)GlcNAc(b1-2)Man(a1-3)[Gal(b1-4)GlcNAc(b1-3)Gal(b1-4)GlcNAc(b1-3)Gal(b1-4)GlcNAc(b1-3)Gal(b1-4)GlcNAc(b1-3)Gal(b1-4)GlcNAc(b1-2)Man(a1-6)]Man(b1-4)GlcNAc(b1-4)GlcNAc
Outline: as §1

[12] = biological target: Gal(b1-4)GlcNAc(b1-3)Gal(b1-4)GlcNAc(b1-3)Gal(b1-4)GlcNAc(b1-3)Gal(b1-4)GlcNAc(b1-3)Gal(b1-4)GlcNAc(b1-2)Man(a1-3)[Gal(b1-4)GlcNAc(b1-3)Gal(b1-4)GlcNAc(b1-3)Gal(b1-4)GlcNAc(b1-3)Gal(b1-4)GlcNAc(b1-3)Gal(b1-4)GlcNAc(b1-2)Man(a1-6)]Man(b1-4)GlcNAc(b1-4)[Fuc(a1-6)]GlcNAc
Outline: as §1

[13] = biological target: Gal(b1-4)GlcNAc(b1-3)Gal(b1-4)GlcNAc(b1-3)Gal(b1-4)GlcNAc(b1-3)Gal(b1-4)GlcNAc(b1-3)Gal(b1-4)GlcNAc(b1-2)[Gal(b1-4)GlcNAc(b1-3)Gal(b1-4)GlcNAc(b1-3)Gal(b1-4)GlcNAc(b1-3)Gal(b1-4)GlcNAc(b1-3)Gal(b1-4)GlcNAc(b1-6)]Man(a1-6)[Gal(b1-4)GlcNAc(b1-3)Gal(b1-4)GlcNAc(b1-3)Gal(b1-4)GlcNAc(b1-3)Gal(b1-4)GlcNAc(b1-3)Gal(b1-4)GlcNAc(b1-2)Man(a1-3)]Man(b1-4)GlcNAc(b1-4)[Fuc(a1-6)]GlcNAc
Outline: as §1

[14] = biological target: Gal(b1-4)GlcNAc(b1-3)Gal(b1-4)GlcNAc(b1-3)Gal(b1-4)GlcNAc(b1-3)Gal(b1-4)GlcNAc(b1-3)Gal(b1-4)GlcNAc(b1-3)Gal(b1-4)GlcNAc(b1-2)Man(a1-3)[Gal(b1-4)GlcNAc(b1-3)Gal(b1-4)GlcNAc(b1-3)Gal(b1-4)GlcNAc(b1-3)Gal(b1-4)GlcNAc(b1-3)Gal(b1-4)GlcNAc(b1-3)Gal(b1-4)GlcNAc(b1-2)Man(a1-6)]Man(b1-4)GlcNAc(b1-4)GlcNAc
Outline: as §1

[15] = biological target: Gal(b1-4)GlcNAc(b1-3)Gal(b1-4)GlcNAc(b1-3)GalNAc
Outline: as §1

[16] = biological target: Gal(b1-4)GlcNAc(b1-3)Gal(b1-4)GlcNAc(b1-3)[Gal(b1-4)GlcNAc(b1-3)Gal(b1-4)GlcNAc(b1-6)]GalNAc
Outline: as §1

[17] = biological target: Gal(b1-4)GlcNAc(b1-3)Gal(b1-4)GlcNAc(b1-6)[Gal(b1-3)]GalNAc
Outline: as §1

[18] = biological target: Gal(b1-4)GlcNAc(b1-3)Gal(b1-4)[Fuc(a1-3)]GlcNAc(b1-3)Gal(b1-4)[Fuc(a1-3)]GlcNAc
Outline: as §1

[19] = biological target: Gal(b1-4)GlcNAc(b1-3)GalNAc
Outline: as §1

[20] = biological target: Gal(b1-4)GlcNAc(b1-3)[Fuc(a1-3)GlcNAc(b1-6)]Gal(b1-4)Glc
Outline: as §1

[21] = biological target: Gal(b1-4)GlcNAc(b1-3)[Gal(b1-4)GlcNAc(b1-6)]Gal(b1-4)GlcNAc
Outline: as §1

[22] = biological target: Gal(b1-4)GlcNAc(b1-3)[GlcNAc(b1-6)]Gal(b1-4)GlcNAc
Outline: as §1

[23] = biological target: Gal(b1-4)GlcNAc(b1-6)Gal(b1-4)GlcNAc
Outline: as §1

[24] = biological target: Gal(b1-4)GlcNAc(b1-6)GalNAc
Outline: as §1

[25] = biological target: Gal(b1-4)GlcNAc(b1-6)[Gal(b1-3)]GalNAc
Outline: as §1

[26] = biological target: Gal(b1-4)GlcNAc(b1-6)[Gal(b1-4)GlcNAc(b1-3)]GalNAc
Outline: as §1

Gal(b1-4)GlcNAc6P = biological target: Gal(b1-4)GlcNAc6P
Outline: as §1

Gal(b1-6)Gal = biological target: Gal(b1-6)Gal
Outline: as §1

Gal3S(b1-3)GalNAc = biological target: Gal3S(b1-3)GalNAc
Outline: as §1

Gal3S(b1-3)GlcNAc = biological target: Gal3S(b1-3)GlcNAc
Outline: as §1

[27] = biological target: Gal3S(b1-3)[Fuc(a1-4)]GlcNAc
Outline: as §1

Gal3S(b1-4)Glc = biological target: Gal3S(b1-4)Glc
Outline: as §1

Gal3S(b1-4)Glc6S = biological target: Gal3S(b1-4)Glc6S
Outline: as §1

Gal3S(b1-4)GlcNAc = biological target: Gal3S(b1-4)GlcNAc
Outline: as §1

[28] = biological target: Gal3S(b1-4)[Fuc(a1-3)]Glc6S
Outline: as §1

[29] = biological target: Gal3S(b1-4)[Fuc(a1-3)]GlcNAc
Outline: as §1

[30] = biological target: Gal3S(b1-4)[Fuc(a1-3)]GlcNAc6S
Outline: as §1

B1: HA-00510 (Pseudomonas aeruginosa), Q02V39_PSEAB (protein)
chain: GVPIVNIATPNGAGLSNNHFRDYNVGANGLILNNATGKTQGTQLGGIILGNPNLKGQAAQVILNQVTGGNRSTLAGYTEVAGQSARVIVANPHGITCQGCGFINTPRATLTTGKPIMDGQRLERFQVDGGDIVVEGAELNVGNLEQFDLITRSAKLNAKLYAKNLNIVTGRNDVQADSLQATPRAADGSEKPQLAIDSSALGGMYAGAIRLVGTEQGVGVKLAGDMAASGGDIRIDASGKLSLAQASSQGDLKIAAQAVELNGKTYAGGSAEIRSAEELVNRQS
glycan array binding signal (z-score) [1]: -0.448 | glycan array binding signal (z-score) [2]: 1.94 | glycan array binding signal (z-score) [3]: 0.995 | glycan array binding signal (z-score) [4]: -0.092 | glycan array binding signal (z-score) [5]: 1.43 | glycan array binding signal (z-score) [6]: 0.088 | glycan array binding signal (z-score) [7]: 0.107 | glycan array binding signal (z-score) [8]: -0.943 | glycan array binding signal (z-score) [9]: -0.071 | glycan array binding signal (z-score) [10]: 0.615 | glycan array binding signal (z-score) [11]: -0.151 | glycan array binding signal (z-score) [12]: -0.155 | glycan array binding signal (z-score) [13]: -0.029 | glycan array binding signal (z-score) [14]: -0.473 | glycan array binding signal (z-score) [15]: 3.26 | glycan array binding signal (z-score) [16]: 3.88 | glycan array binding signal (z-score) [17]: 1.08 | glycan array binding signal (z-score) [18]: 0.208 | glycan array binding signal (z-score) [19]: 0.204 | glycan array binding signal (z-score) [20]: 0.203 | glycan array binding signal (z-score) [21]: -0.05 | glycan array binding signal (z-score) [22]: -0.3 | glycan array binding signal (z-score) [23]: -0.446 | glycan array binding signal (z-score) [24]: 0.013 | glycan array binding signal (z-score) [25]: -0.945 | glycan array binding signal (z-score) [26]: -0.374 | glycan array binding signal (z-score) (Gal(b1-4)GlcNAc6P): -0.894 | glycan array binding signal (z-score) (Gal(b1-6)Gal): -0.435 | glycan array binding signal (z-score) (Gal3S(b1-3)GalNAc): 0.37 | glycan array binding signal (z-score) (Gal3S(b1-3)GlcNAc): -0.431 | glycan array binding signal (z-score) [27]: -0.123 | glycan array binding signal (z-score) (Gal3S(b1-4)Glc): 0.114 | glycan array binding signal (z-score) (Gal3S(b1-4)Glc6S): 0.418 | glycan array binding signal (z-score) (Gal3S(b1-4)GlcNAc): -0.217 | glycan array binding signal (z-score) [28]: 0.258 | glycan array binding signal (z-score) [29]: 0.486 | glycan array binding signal (z-score) [30]: 0.896
